This is one part of the list. Most values lie at the level of the controls, where differences are scatter.

The chains behind the UniProt entries cited, without tags or fusion partners. Where a name states a change or a piece, a line headed by the entry shows the natural chain unless it says otherwise.
UniProt Q9NWH9: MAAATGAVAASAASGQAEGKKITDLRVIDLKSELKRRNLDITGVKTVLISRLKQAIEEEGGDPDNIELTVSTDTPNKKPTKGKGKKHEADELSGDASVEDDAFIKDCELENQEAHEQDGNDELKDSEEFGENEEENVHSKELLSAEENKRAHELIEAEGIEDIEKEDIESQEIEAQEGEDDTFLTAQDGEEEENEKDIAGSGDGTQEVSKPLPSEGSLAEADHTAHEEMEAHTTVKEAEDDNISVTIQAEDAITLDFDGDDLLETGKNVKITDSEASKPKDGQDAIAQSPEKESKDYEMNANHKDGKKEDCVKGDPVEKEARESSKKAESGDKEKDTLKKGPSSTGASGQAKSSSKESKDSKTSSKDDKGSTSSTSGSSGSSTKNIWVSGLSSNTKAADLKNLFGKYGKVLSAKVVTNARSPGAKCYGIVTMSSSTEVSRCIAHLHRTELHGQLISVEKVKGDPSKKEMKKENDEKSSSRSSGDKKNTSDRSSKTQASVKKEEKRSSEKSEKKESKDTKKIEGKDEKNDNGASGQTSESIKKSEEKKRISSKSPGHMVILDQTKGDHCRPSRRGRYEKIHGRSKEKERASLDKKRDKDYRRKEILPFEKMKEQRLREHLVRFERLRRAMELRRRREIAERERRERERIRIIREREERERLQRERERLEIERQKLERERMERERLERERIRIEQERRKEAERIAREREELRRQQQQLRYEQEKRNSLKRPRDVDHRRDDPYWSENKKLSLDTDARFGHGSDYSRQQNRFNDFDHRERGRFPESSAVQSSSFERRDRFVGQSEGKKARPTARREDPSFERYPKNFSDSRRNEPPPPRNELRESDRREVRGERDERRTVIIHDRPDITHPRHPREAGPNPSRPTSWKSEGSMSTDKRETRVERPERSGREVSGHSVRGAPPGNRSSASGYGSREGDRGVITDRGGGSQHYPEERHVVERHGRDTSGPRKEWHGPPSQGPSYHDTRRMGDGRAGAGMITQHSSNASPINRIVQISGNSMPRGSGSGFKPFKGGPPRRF
UniProt Q9NRH1: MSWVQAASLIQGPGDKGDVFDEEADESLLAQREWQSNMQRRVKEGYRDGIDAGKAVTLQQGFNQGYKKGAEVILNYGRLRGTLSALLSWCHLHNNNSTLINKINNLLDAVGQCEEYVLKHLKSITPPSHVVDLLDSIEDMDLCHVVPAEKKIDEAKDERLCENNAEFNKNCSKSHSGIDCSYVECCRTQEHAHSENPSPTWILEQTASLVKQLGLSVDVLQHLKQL
UniProt Q9NV66: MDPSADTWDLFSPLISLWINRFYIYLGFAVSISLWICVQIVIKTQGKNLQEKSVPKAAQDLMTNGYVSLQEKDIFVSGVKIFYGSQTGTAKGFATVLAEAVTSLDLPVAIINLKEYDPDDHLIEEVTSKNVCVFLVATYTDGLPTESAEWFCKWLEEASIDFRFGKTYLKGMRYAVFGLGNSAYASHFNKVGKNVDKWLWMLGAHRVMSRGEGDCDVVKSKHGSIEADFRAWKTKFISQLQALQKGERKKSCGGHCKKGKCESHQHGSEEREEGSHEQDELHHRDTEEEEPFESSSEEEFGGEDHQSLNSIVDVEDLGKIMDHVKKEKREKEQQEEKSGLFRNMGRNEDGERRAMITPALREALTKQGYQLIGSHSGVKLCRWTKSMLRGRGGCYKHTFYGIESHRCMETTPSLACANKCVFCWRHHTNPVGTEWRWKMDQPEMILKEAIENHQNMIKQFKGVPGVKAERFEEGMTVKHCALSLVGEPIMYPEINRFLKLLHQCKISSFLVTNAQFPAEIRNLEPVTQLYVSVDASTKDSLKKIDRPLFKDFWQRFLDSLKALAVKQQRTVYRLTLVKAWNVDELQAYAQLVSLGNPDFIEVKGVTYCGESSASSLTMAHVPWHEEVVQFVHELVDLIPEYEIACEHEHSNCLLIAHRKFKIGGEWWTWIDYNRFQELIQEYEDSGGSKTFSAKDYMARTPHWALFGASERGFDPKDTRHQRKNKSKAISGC
UniProt Q9NVE7: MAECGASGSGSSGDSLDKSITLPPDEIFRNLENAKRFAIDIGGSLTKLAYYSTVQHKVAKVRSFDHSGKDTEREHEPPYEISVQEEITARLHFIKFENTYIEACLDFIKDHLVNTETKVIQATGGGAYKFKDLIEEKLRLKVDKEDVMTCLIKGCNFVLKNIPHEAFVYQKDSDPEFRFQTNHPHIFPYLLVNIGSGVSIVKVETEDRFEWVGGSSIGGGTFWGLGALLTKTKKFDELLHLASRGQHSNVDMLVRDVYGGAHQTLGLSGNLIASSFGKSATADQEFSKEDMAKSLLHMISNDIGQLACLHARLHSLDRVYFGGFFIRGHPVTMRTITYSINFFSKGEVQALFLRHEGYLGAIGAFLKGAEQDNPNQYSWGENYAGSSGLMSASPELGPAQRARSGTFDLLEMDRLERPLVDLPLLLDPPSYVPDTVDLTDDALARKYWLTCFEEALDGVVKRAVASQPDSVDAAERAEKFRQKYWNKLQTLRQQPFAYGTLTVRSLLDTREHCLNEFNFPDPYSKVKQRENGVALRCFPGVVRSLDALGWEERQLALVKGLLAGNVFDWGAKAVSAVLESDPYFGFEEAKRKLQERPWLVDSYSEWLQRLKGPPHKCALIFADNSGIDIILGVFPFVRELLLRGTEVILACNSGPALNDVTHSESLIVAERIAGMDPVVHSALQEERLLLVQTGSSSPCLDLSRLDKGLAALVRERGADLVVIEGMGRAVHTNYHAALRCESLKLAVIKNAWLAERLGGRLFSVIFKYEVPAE
UniProt Q9NRX5: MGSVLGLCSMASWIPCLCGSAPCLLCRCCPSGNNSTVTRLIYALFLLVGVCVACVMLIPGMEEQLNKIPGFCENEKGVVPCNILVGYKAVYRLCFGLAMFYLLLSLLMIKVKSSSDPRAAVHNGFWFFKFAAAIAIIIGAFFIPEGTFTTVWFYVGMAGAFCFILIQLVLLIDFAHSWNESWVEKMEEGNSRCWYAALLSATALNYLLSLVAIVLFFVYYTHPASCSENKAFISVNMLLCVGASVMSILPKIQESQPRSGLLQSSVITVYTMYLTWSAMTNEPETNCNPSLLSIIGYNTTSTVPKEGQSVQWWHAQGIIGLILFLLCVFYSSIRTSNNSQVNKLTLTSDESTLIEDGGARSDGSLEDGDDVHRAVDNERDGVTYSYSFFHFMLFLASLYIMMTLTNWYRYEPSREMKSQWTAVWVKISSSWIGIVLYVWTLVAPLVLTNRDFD
UniProt Q9NWQ4: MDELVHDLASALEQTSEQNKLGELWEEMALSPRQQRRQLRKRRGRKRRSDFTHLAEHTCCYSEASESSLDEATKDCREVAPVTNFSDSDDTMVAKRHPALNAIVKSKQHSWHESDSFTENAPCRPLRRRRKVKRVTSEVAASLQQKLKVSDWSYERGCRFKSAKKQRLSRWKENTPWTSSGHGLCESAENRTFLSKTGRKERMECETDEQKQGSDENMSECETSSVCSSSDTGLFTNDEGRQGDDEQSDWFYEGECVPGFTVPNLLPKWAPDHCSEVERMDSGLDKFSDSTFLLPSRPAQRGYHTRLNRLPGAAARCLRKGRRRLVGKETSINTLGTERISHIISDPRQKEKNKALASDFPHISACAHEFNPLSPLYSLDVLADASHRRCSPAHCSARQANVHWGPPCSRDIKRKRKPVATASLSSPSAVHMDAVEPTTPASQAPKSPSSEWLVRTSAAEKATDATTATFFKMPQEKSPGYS
UniProt Q9NP31, whole entry, looked up: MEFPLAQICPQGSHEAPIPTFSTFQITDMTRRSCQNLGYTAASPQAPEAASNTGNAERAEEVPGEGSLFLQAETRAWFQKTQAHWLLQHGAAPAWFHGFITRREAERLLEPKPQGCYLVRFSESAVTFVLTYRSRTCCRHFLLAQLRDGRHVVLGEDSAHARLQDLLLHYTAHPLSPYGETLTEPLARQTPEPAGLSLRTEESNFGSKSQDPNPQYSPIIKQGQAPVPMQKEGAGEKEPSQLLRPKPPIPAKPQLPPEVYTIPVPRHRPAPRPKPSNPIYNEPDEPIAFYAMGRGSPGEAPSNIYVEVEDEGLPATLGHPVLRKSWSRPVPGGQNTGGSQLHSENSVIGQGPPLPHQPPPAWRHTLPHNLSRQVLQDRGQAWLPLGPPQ
UniProt Q9NWV8, whole entry: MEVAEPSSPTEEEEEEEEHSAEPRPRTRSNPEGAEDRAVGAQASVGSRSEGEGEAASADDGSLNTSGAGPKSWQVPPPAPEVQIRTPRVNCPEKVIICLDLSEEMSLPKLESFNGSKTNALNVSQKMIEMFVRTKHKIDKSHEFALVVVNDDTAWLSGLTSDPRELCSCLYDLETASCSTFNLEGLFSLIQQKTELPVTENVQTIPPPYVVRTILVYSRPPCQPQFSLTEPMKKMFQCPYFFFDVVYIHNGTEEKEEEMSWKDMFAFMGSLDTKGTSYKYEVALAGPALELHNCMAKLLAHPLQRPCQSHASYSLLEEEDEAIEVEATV
UniProt Q9NUQ8: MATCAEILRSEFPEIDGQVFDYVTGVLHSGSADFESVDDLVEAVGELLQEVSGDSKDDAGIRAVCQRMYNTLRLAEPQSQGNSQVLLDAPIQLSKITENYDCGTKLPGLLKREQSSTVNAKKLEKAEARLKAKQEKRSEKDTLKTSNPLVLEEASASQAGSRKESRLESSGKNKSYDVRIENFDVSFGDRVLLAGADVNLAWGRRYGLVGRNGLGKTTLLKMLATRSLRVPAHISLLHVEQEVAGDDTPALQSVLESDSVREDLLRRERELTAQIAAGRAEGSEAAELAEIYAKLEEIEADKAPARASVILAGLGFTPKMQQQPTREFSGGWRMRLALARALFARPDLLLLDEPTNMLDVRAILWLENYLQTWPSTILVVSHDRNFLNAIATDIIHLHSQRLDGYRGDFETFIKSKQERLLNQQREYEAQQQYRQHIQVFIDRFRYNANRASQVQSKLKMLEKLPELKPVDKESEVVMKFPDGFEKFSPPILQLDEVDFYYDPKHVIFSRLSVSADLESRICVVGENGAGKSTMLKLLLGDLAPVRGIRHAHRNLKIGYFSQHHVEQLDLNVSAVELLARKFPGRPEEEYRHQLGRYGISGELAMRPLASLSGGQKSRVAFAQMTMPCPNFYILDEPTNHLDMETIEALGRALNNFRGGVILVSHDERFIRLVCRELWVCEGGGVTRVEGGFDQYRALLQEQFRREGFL
UniProt Q9NSE4: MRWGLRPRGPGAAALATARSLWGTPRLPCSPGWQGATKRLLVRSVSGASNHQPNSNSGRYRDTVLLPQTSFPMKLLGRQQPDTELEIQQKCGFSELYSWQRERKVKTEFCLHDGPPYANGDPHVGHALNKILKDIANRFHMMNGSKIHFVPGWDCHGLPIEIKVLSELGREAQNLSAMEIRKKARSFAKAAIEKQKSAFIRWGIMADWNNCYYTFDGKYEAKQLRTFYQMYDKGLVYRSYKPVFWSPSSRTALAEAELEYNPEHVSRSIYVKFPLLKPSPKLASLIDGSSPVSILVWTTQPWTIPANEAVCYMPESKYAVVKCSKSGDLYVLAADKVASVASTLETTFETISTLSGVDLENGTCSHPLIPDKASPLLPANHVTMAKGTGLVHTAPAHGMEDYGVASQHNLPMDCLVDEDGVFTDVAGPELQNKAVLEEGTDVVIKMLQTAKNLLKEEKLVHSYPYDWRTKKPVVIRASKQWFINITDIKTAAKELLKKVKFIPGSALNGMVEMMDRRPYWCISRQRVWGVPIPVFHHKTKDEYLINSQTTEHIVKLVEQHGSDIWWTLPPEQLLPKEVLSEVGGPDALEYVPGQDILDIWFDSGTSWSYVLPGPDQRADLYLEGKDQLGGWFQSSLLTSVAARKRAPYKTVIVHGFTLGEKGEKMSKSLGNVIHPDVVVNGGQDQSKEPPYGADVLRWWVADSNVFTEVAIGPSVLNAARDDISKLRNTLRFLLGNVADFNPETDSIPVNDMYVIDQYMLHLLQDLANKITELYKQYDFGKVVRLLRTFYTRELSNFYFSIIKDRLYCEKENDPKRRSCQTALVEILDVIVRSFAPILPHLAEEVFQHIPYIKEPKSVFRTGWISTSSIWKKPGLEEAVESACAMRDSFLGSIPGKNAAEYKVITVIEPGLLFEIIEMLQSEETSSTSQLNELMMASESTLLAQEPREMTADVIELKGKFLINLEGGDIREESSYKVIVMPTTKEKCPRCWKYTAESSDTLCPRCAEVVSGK
UniProt Q9NT62, whole entry: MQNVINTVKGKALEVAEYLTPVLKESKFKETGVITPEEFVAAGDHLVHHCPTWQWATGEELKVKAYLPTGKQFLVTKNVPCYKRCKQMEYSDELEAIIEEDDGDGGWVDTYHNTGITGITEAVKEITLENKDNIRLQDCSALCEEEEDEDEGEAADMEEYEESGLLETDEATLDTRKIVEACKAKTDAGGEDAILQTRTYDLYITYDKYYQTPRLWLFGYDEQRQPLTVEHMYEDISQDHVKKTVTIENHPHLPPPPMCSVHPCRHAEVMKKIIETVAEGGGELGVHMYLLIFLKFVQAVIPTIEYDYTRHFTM

Compound in this experiment: Cc1nc(Nc2ncc(C(=O)Nc3c(C)cccc3Cl)s2)cc(N2CCN(CCO)CC2)n1 [dasatinib]
The experiment can be described thus: log2 fold change of tryptic peptide abundance, ligand vs vehicle (limited proteolysis) (log2 ratio); higher = more trypsin-susceptible (destabilized). As to conditions: ligand concentration: 5 uM; sample: K562 cleared lysate.
On to “SDAD1 (peptide sequence: MSLDVMIELYRR, peptide start residue: 179) (UniProt Q9NVU7)”, for which the log2 fold change is 0.31.

Turning to “SLTM (peptide sequence: AGAGMITQHSSNASPINR, peptide start residue: 989) (UniProt Q9NWH9)”, the log2 fold change was -0.239.

For “UniProt Q9NRH1 (peptide sequence: GAEVILNYGR, peptide start residue: 69)”, the log2 fold change stood at 0.245.

On to “UniProt Q9NT68 (peptide sequence: KPSKYCSWK, peptide start residue: 366)”, for which the log2 fold change came out at 0.0781.

Turning to “FAM114A2 (peptide sequence: SLTKPLAENEEGEK, peptide start residue: 343) (UniProt Q9NRY5)”, the log2 fold change amounted to 0.967.

On to “TDP1 (peptide sequence: EKDISAPNDGTAQR, peptide start residue: 113) (UniProt Q9NUW8)”, for which the log2 fold change is -0.0884.

With “TBCCD1 (peptide sequence: SQSPDLTEK, peptide start residue: 150) (UniProt Q9NVR7)”, the log2 fold change is -0.374.

Turning to “TYW1 (peptide sequence: HHTNPVGTEWR, peptide start residue: 426) (UniProt Q9NV66)”, the log2 fold change is -0.245.

“PANK4 (peptide sequence: FDELLHLASR, peptide start residue: 235) (UniProt Q9NVE7)”: the log2 fold change was 0.747.

As for “SERINC1 (peptide sequence: SDGSLEDGDDVHR, peptide start residue: 361) (UniProt Q9NRX5)”, the log2 fold change was -0.189.

For “GPATCH2L (peptide sequence: WAPDHCSEVER, peptide start residue: 269) (UniProt Q9NWQ4)”, the log2 fold change is -0.182.

Consider “CASS4 (peptide sequence: QREDEHSSELLK, peptide start residue: 631) (UniProt Q9NQ75)”, for which the log2 fold change is -0.588.

On to “PDS5B (peptide sequence: KSGPPAPEEEEEEER, peptide start residue: 1318) (UniProt Q9NTI5)”, for which the log2 fold change is -0.4.

“DDX4 (peptide sequence: DLMACAQTGSGK, peptide start residue: 219) (UniProt Q9NQI0)”: the log2 fold change was determined as 0.0449.

Regarding “PPAN (peptide sequence: VQEGVGEGK, peptide start residue: 286) (UniProt Q9NQ55)”, the log2 fold change was determined as 0.268.

For the target “RBM28 (peptide sequence: GQPEPAKDQQQK, peptide start residue: 611) (UniProt Q9NW13)”, the log2 fold change was found to be 0.133.

Turning to “SH2D2A (peptide sequence: QTPEPAGLSLR, peptide start residue: 189) (UniProt Q9NP31)”, the log2 fold change is -0.347.

As for “ARGLU1 (peptide sequence: QLLEELER, peptide start residue: 171) (UniProt Q9NWB6)”, the log2 fold change is -0.166.

Consider “TMEM184C (peptide sequence: ISDEILSDTIGEKKEPSDK, peptide start residue: 416) (UniProt Q9NVA4)”, for which the log2 fold change is -0.472.

Take “SAR1A (peptide sequence: PMEVFMCSVLKR, peptide start residue: 172) (UniProt Q9NR31)”: the log2 fold change was -0.367.

Regarding “AAAS (peptide sequence: TAFIHHR, peptide start residue: 67) (UniProt Q9NRG9)”, the log2 fold change worked out at 0.308.

As for “DIABLO (peptide sequence: LAEAQIEELR, peptide start residue: 208) (UniProt Q9NR28)”, the log2 fold change is -0.0703.

Take “BSDC1 (peptide sequence: VETLREEAPTDLR, peptide start residue: 354) (UniProt Q9NW68)”: the log2 fold change worked out at 0.0844.

For the target “SRA1 (peptide sequence: RMALLVQELSSHR, peptide start residue: 148) (UniProt Q9HD15)”, the log2 fold change came to 0.332.

On to “UniProt Q9NWV8 (peptide sequence: SNPEGAEDR, peptide start residue: 29)”, for which the log2 fold change was found to be 0.0858.

Take “NDFIP2 (peptide sequence: AAAMAAAAAETSQR, peptide start residue: 194) (UniProt Q9NV92)”: the log2 fold change stood at 0.497.

As to “ABCF3 (peptide sequence: LLLGDLAPVR, peptide start residue: 537) (UniProt Q9NUQ8)”, the log2 fold change was -0.112.

As to “MDN1 (peptide sequence: DLLNWCNR, peptide start residue: 549) (UniProt Q9NU22)”, the log2 fold change worked out at 0.443.

“NRBP2 (peptide sequence: VTEEAIAR, peptide start residue: 262) (UniProt Q9NSY0)”: the log2 fold change is -0.293.

Turning to “UniProt Q9HCR9 (peptide sequence: KGKQEMVEK, peptide start residue: 29)”, the log2 fold change stood at 0.203.

On to “VTA1 (peptide sequence: IDSKTPECR, peptide start residue: 49) (UniProt Q9NP79)”, for which the log2 fold change was -0.533.

As to “RBFOX1 (peptide sequence: MNCEREQLR, peptide start residue: 1) (UniProt Q9NWB1)”, the log2 fold change was -0.0805.

“EXOC1 (peptide sequence: KESAVKQETESLHGSSGK, peptide start residue: 449) (UniProt Q9NV70)”: the log2 fold change was -0.867.

For the target “MRPL47 (peptide sequence: GLEEFFDDPKNWGQEK, peptide start residue: 63) (UniProt Q9HD33)”, the log2 fold change was 0.329.

Regarding “IARS2 (peptide sequence: ADLYLEGK, peptide start residue: 618) (UniProt Q9NSE4)”, the log2 fold change was -0.575.

In the case of “NIT2 (peptide sequence: KIHLFDIDVPGK, peptide start residue: 112) (UniProt Q9NQR4)”, the log2 fold change was -0.265.

On to “ATG3 (peptide sequence: QPLTVEHMYEDISQDHVK, peptide start residue: 225) (UniProt Q9NT62)”, for which the log2 fold change was -0.386.

The values are drawn from the supplement of paper PMC12819154, “High-throughput peptide-centric local stability assay extends protein–ligand identification to membrane proteins, tissues and bacteria” (Nature Structural & Molecular Biology, 2025).
